{
  "source": "PubChem BioAssay AID595",
  "about": "(National Center for Advancing Translational Sciences (NCATS), 2007)",
  "note": "Among all 71,000 compounds or so, about 310 (0.44%) were called active. The shares of active, inactive and inconclusive entries below differ from those in the screen. Calls come from the whole dose curve; as a rule, active = well fitted curve in either direction with a large enough effect; inconclusive = small, poorly fitted or top-dose-only effect, or another doubt; inactive = flat fitted curve, though single readings scatter. A potency beside an inconclusive call is a rough fit, not a confirmed value. % is set by controls: 0 for no effect and ±100 for the full control effect; potency is the fitted concentration of half-maximal effect.",
  "data": [
    {"tested_on": "Hsp90 C-terminal peptide / TPR2A (Hop) interaction, human", "assay": "qHTS Assay for Disrupters of an Hsp90 Co-Chaperone Interaction", "conditions": "AlphaScreen TPR2A-His6 binding biotin-Hsp90 C-terminal peptide; activity change, negative = inhibition: at 57 µM (top of the series) unless noted", "values": [
      {"smiles": "Cc1ccc(S(=O)(=O)/N=C(\\CN2CCCCC2)N2CCOCC2)cc1", "activity change, negative = inhibition": "inconclusive: 62.5% [at 11 µM]"},
      {"smiles": "CCCn1nc(CC(=O)O)c2ccccc2c1=O", "activity change, negative = inhibition": "inconclusive: 53%"},
      {"smiles": "c1ccc(-c2nc(N3CCCCCC3)c3ccccc3n2)nc1", "Potency": "inconclusive: 25.1 µM [inhibitor, partial curve]"},
      {"smiles": "CCn1c(=O)cc(SCC(=O)Nc2ccc3c(c2)OCCO3)c2ccccc21", "activity change, negative = inhibition": "inactive"},
      {"smiles": "COCc1cc(CN2CCCC2)c(O)c2ncccc12", "Potency": "active: 3.16 µM"},
      {"smiles": "O=C(CN(c1ccc2c(c1)OCCO2)S(=O)(=O)c1ccccc1)Nc1ccc2c(c1)OCO2", "activity change, negative = inhibition": "inconclusive: 25.2%"},
      {"smiles": "CN1CCN(c2nc(N3CCN(CCO)CC3)nc3ccccc23)CC1", "activity change, negative = inhibition": "inactive"},
      {"smiles": "CCOc1cc(-c2nc3ccccn3c2NCC2CCCO2)ccc1O", "note": "(configuration not stated)", "activity change, negative = inhibition": "inconclusive: 45.2%"},
      {"smiles": "Cc1ccc(C(c2nnnn2CCc2ccccc2)N2CCSCC2)cc1", "note": "(configuration not stated)", "activity change, negative = inhibition": "inactive"},
      {"smiles": "Cn1c(Cn2c(=O)sc3ccccc32)nnc1SCC(=O)N1CCCC1", "activity change, negative = inhibition": "inconclusive: 43.1% [at 2.3 µM]"},
      {"smiles": "CCc1cccc(NC(=O)Cn2cc3c(n2)CCCC3)c1", "activity change, negative = inhibition": "inactive"},
      {"smiles": "COc1ccccc1Nc1nc(N)nc(CN2CCN(c3ccccc3)CC2)n1", "Potency": "inconclusive: 31.6 µM [inhibitor, single point]"},
      {"smiles": "CCn1c(SCC(=O)Nc2cc(C)on2)nc2c(c1=O)SC(C)C2", "note": "(configuration not stated)", "activity change, negative = inhibition": "inconclusive: 40.1%"},
      {"smiles": "CCN1c2ccccc2-c2nc3ccccc3n2C1c1cccnc1", "note": "(configuration not stated)", "activity change, negative = inhibition": "inconclusive: 70.1%"},
      {"smiles": "COC(=O)c1c(C(=O)NCc2ccccc2)ncn1CC(O)COc1ccccc1", "note": "(configuration not stated)", "activity change, negative = inhibition": "inconclusive: 44.5%"},
      {"smiles": "CCOC(=O)c1c(NC(=O)c2nn(CC)cc2Br)c(C#N)cn1-c1ccccc1", "activity change, negative = inhibition": "inactive"},
      {"smiles": "CCS(=O)(=O)n1nc(-c2ccc(OC)cc2)nc1SC", "activity change, negative = inhibition": "inconclusive: 60.9%"},
      {"smiles": "CCOc1ccc(NC(=O)N(CCN2CCOCC2)Cc2ccc3c(c2)CCCN3CC)cc1", "Potency": "inconclusive: 39.8 µM [inhibitor, single point]"},
      {"smiles": "Cn1c(=O)oc2cc(S(=O)(=O)N3CCCC(C(=O)N4CC=C(c5ccccc5)CC4)C3)ccc21", "note": "(configuration not stated)", "activity change, negative = inhibition": "inconclusive: 48.4% [at 2.3 µM]"},
      {"smiles": "COc1cc(-c2nc(-c3cccc(C)c3)no2)cc(OC)c1OC", "Potency": "inconclusive: 3.16 µM [activator, single point]"},
      {"smiles": "CC1(C)S[C@@H]2[C@H](NC(=O)C3(N)CCCCC3)C(=O)N2[C@@H]1C(=O)O", "activity change, negative = inhibition": "inactive: -4.48% [at 11 µM]"},
      {"smiles": "CCN(CC)S(=O)(=O)c1cccc(-c2nnc(SCCOc3ccc(Cl)cc3)o2)c1", "Potency": "inconclusive: 25.1 µM [activator, single point]"},
      {"smiles": "CCOc1cc(NC(=O)c2ccco2)c(OCC)cc1NC(=O)Cc1cccc(OC)c1", "Potency": "inconclusive: 31.6 µM [inhibitor, single point]"},
      {"smiles": "Cc1cccc(OCc2nc(C#N)c(N3CC(C)CC(C)C3)o2)c1", "note": "(configuration not stated)", "Potency": "inconclusive: 12.6 µM [inhibitor, partial curve]"},
      {"smiles": "CC(=O)c1c(C)[nH]c(C(=O)Nc2cc(C)ccc2C)c1C", "activity change, negative = inhibition": "inconclusive: 44.4%"},
      {"smiles": "CCCCC(CC)COC(=O)COc1ccc(Cl)cc1Cl", "note": "(configuration not stated)", "Potency": "inconclusive: 31.6 µM [activator, single point]"},
      {"smiles": "COc1cc(NC(=O)Nc2ccccc2OC)c(OC)cc1NC(=O)CN1CCCCC1", "Potency": "inconclusive: 25.1 µM [inhibitor, single point]"},
      {"smiles": "COc1ccc(C(O)c2nccn2Cc2ccccc2)cc1", "note": "(configuration not stated)", "activity change, negative = inhibition": "inactive"},
      {"smiles": "C=CCn1c(=O)c2c(nc(-c3ccc(S(=O)(=O)O)cc3)n2C)n(C)c1=O", "activity change, negative = inhibition": "inconclusive: 64.4%"},
      {"smiles": "O=c1c(-c2cccc(Cl)c2)nc2cncnc2n1-c1ccccc1", "activity change, negative = inhibition": "inactive"},
      {"smiles": "COc1ccc(NC(C)=O)cc1NC(=O)CN1CCN(CC(=O)Nc2ccc(Cl)cc2)CC1", "activity change, negative = inhibition": "inconclusive: 42.3%"},
      {"smiles": "COc1ccc(CC(=O)Nc2ccc(-c3nnc(-c4ccccc4)o3)cc2)cc1OC", "activity change, negative = inhibition": "inactive"},
      {"smiles": "CCCc1cc(=O)n2[nH]c(SCc3ccccc3)nc2n1", "activity change, negative = inhibition": "inconclusive: 53.9%"},
      {"smiles": "COc1ccccc1NC(=O)c1sc2nc(-c3ccco3)ccc2c1N", "activity change, negative = inhibition": "inactive"},
      {"smiles": "CC1(C)OCC(CSC2=C(SCC3COC(C)(C)O3)C(=O)c3ncccc3C2=O)O1", "note": "(configuration not stated)", "Potency": "active: 15.8 µM"},
      {"smiles": "O=C(Nc1cccc2nsnc12)c1ccc2c(c1)OCCO2", "Potency": "inconclusive: 25.1 µM [activator, single point]"},
      {"smiles": "N#Cc1nc(COc2ccccc2)oc1N1CCCCC1", "Potency": "inconclusive: 15.8 µM [inhibitor, partial curve]"},
      {"smiles": "COc1cc([C@@H]2Oc3cc([C@H]4Oc5cc(O)cc(O)c5C(=O)[C@H]4O)ccc3O[C@H]2CO)ccc1O", "activity change, negative = inhibition": "inactive"},
      {"smiles": "CC(C)c1nnc(NC(=O)c2cccs2)s1", "activity change, negative = inhibition": "inconclusive: 44.4%"},
      {"smiles": "O=C(OCn1nnc2ccccc2c1=O)c1ccc2ccccc2n1", "activity change, negative = inhibition": "inconclusive: 52.4%"},
      {"smiles": "Cc1cccc(NC(=O)CN2CCN(CC(=O)Nc3cccc(C)c3)CC2)c1", "activity change, negative = inhibition": "inconclusive: 37.6%"},
      {"smiles": "N#Cc1nc(-c2ccc(OCc3ccccc3)cc2)oc1NCCCn1ccnc1", "Potency": "inconclusive: 25.1 µM [inhibitor, partial curve]"},
      {"smiles": "O=c1c(O)c(-c2ccc(O)c(O)c2)oc2ccccc12", "activity change, negative = inhibition": "inactive"},
      {"smiles": "CCN(CC)CCNc1ccc(CO)c2sc3ccccc3c(=O)c12", "activity change, negative = inhibition": "inactive"},
      {"smiles": "O=C(C1Cc2ccccc2CN1S(=O)(=O)c1ccc(F)cc1)N1CCCCCC1", "note": "(configuration not stated)", "activity change, negative = inhibition": "inactive"},
      {"smiles": "Cc1cccc(C)c1OCC(O)Cn1ccnc1C", "note": "(configuration not stated)", "activity change, negative = inhibition": "inconclusive: 43.8% [at 2.3 µM]"},
      {"smiles": "Cc1ccccc1-c1nc(N(C)Cc2ccco2)c2ccccc2n1", "Potency": "inconclusive: 25.1 µM [activator, single point]"},
      {"smiles": "Cc1nn2c(N3CCOCC3)c3c(nc2c1-c1ccccc1)CCCC3", "activity change, negative = inhibition": "inconclusive: 55.8%"},
      {"smiles": "S=C(NC1CCCCC1)NC1CCCCC1", "activity change, negative = inhibition": "inconclusive: 50.1%"},
      {"smiles": "C[C@]12C=CC(=O)C=C1CC[C@@H]1[C@H]3C[C@@H](O)[C@](O)(C(=O)CO)[C@@]3(C)C[C@H](O)[C@]12F", "activity change, negative = inhibition": "inactive"},
      {"smiles": "CCC(C(=O)NC1CCCC1)N(C(=O)c1snc(C(N)=O)c1N)c1ccc2c(c1)OCCO2", "note": "(configuration not stated)", "activity change, negative = inhibition": "inconclusive: 62.9%"},
      {"smiles": "O=C(COC(=O)C12CC3CC(CC(O)(C3)C1)C2)NC(=O)NCc1ccco1", "activity change, negative = inhibition": "inconclusive: 34.5%"}
    ]}
  ]
}
